# Results deposited as PubChem BioAssay AID504774 (Drosophila RNAi Screening Center, 2011)
# Purpose: 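Fly genes whose loss alters survival after alkylation damage to DNA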 (primary screen)
# Cell system: Drosophila Kc167 cells
# Reagent: long dsRNA against Drosophila genes, about 0.25 µg dsRNA per well
# Timing: about 6 days: 3 days knock-down, then 3 days with or without MMS
# Challenge: methyl methanesulphonate 0.004% (w/v) for 3 days after knock-down
# Detection: 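ATP-dependent luminescence as a measure of live cells in MMS-exposed wells, quantile normalised within each plate, with replicate values also given as a mean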
# Direction: mean viability with MMS and viability with MMS: higher = more surviving cells after MMS
# The deposit covers about 23,000 reagents; this is an unselected part of those with a known target gene and a result. 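Values are quantile-normalised luminescence on an arbitrary scale; higher means more cells surviving MMS.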 A plus sign joins genes that one reagent is predicted to hit.
predicted target,dsRNA,mean viability with MMS,"viability with MMS, replicate 1","viability with MMS, replicate 2"
CG31021,DRSC22319,3.46e6,3.92e6,3.96e6
OS9 (Olfactory-specific 9),DRSC02700,3.49e6,3.94e6,3.97e6
Tao,DRSC19573,3.55e6,4.03e6,4.09e6
Tao,DRSC19574,3.60e6,4.07e6,4.06e6
Tao,DRSC22639,3.55e6,4.00e6,4.02e6
CG7290,DRSC10800,3.59e6,4.14e6,3.98e6
CG5863,DRSC15898,3.53e6,3.89e6,4.11e6
CG18765,DRSC15392,3.62e6,4.08e6,4.07e6
CG17985,DRSC06702,3.54e6,3.91e6,4.11e6
CG9263,DRSC03176,3.74e6,4.20e6,4.16e6
gskt (gasket),DRSC14056,3.81e6,4.33e6,4.14e6
"E(spl)malpha-BFM (Enhancer of split malpha, Bearded family member)",DRSC16994,3.35e6,3.77e6,3.74e6
CG9672,DRSC20201,3.67e6,4.33e6,4.02e6
CG14535,DRSC02393,3.58e6,4.02e6,4.11e6
prel (preli-like),DRSC07271,3.75e6,4.23e6,4.27e6
eIF3a (eukaryotic translation initiation factor 3 subunit a),DRSC12339,3.13e6,3.62e6,3.60e6
SRPK (SR Protein Kinase),DRSC07090,3.68e6,4.26e6,4.10e6
to (takeout),DRSC17086,3.39e6,3.76e6,3.84e6
Drsl6 (Drosomycin-like 6),DRSC08161,3.66e6,4.14e6,4.10e6
CG13562,DRSC04200,3.41e6,3.92e6,3.77e6
Or30a (Odorant receptor 30a),DRSC03385,3.62e6,4.11e6,4.11e6
Gr64d + Gr64e,DRSC08446,3.53e6,3.99e6,3.93e6
CG30271,DRSC04170,3.79e6,4.16e6,4.37e6
Hsl (Hormone-sensitive lipase),DRSC06028,3.57e6,4.08e6,4.02e6
Cyp12c1 (Cytochrome P450 12c1),DRSC11125,3.50e6,3.95e6,3.97e6
imd (immune deficiency),DRSC05928,3.47e6,3.92e6,3.94e6
mub (mushroom-body expressed),DRSC11896,3.51e6,3.98e6,3.96e6
GAA1 (Glycosylphosphatidylinositol anchor attachment 1),DRSC18267,3.72e6,4.24e6,4.24e6
CG42544,DRSC12451,3.47e6,3.93e6,3.95e6
CG42784,DRSC02534,3.54e6,3.69e6,4.36e6
CG42784,DRSC02535,2.94e6,3.54e6,3.55e6
CG42784,DRSC22804,3.43e6,4.10e6,3.74e6
CG42784,DRSC23000,3.61e6,4.00e6,4.20e6
CG7168,DRSC16208,3.58e6,4.00e6,4.13e6
Tpr2 (Tetratricopeptide repeat protein 2),DRSC03461,3.78e6,4.31e6,4.28e6
Cyp4g15 (Cytochrome P450 4g15),DRSC20240,3.47e6,3.92e6,3.95e6
Sdr (Secreted decoy of InR),DRSC15517,3.59e6,4.16e6,4.01e6
BoYb,DRSC11637,3.62e6,4.01e6,4.18e6
Patronin,DRSC06756,3.59e6,4.11e6,4.01e6
Patronin,DRSC06757,3.46e6,3.92e6,3.92e6
Patronin,DRSC06994,3.50e6,3.98e6,3.96e6
CG30287,DRSC03875,3.34e6,3.77e6,3.85e6
hang (hangover),DRSC19901,3.27e6,3.39e6,3.76e6
hang (hangover),DRSC19902,2.84e6,3.47e6,3.47e6
hang (hangover),DRSC23216,3.77e6,4.36e6,4.19e6

Entries above whose gene name starts with E or e (2):
predicted target,dsRNA,mean viability with MMS,"viability with MMS, replicate 1","viability with MMS, replicate 2"
"E(spl)malpha-BFM (Enhancer of split malpha, Bearded family member)",DRSC16994,3.35e6,3.77e6,3.74e6
eIF3a (eukaryotic translation initiation factor 3 subunit a),DRSC12339,3.13e6,3.62e6,3.60e6

Further reagents follow.
predicted target,dsRNA,mean viability with MMS,"viability with MMS, replicate 1","viability with MMS, replicate 2"
Ugt49B1 (UDP-glycosyltransferase family 49 member B1),DRSC04461,3.50e6,4.09e6,3.84e6
CG42816 + CG42815,DRSC11230,3.69e6,4.12e6,4.19e6
Vha16-4 + CG15614,DRSC07321,3.54e6,3.99e6,4.04e6
CG8142,DRSC20086,3.78e6,4.37e6,4.23e6
Neurl4 (Neuralized E3 ubiquitin protein ligase 4),DRSC10638,3.50e6,3.96e6,3.96e6
CG33791 + CG12105 + CG18170,DRSC08387,3.69e6,4.15e6,4.22e6
CG6790,DRSC16117,3.40e6,3.87e6,3.80e6
CG14330,DRSC14809,3.52e6,3.98e6,4.01e6
Ir52d (Ionotropic receptor 52d),DRSC06264,3.34e6,4.01e6,3.83e6
CG43102,DRSC14797,3.85e6,4.04e6,4.09e6
CG43102,DRSC16239,3.58e6,4.20e6,3.92e6
rdhB (retinol dehydrogenase B),DRSC16190,3.53e6,3.97e6,4.04e6
CG9961,DRSC00738,3.44e6,3.84e6,3.94e6
CG9961,DRSC23343,3.28e6,3.57e6,3.85e6
ND-ACP,DRSC08724,3.53e6,3.93e6,4.08e6
side (sidestep),DRSC14523,3.76e6,4.22e6,3.91e6
side (sidestep),DRSC14716,3.62e6,4.00e6,4.20e6
side (sidestep),DRSC14717,3.60e6,4.03e6,4.13e6
side (sidestep),DRSC14718,3.67e6,4.19e6,4.13e6
side (sidestep),DRSC14721,3.56e6,4.06e6,4.01e6
Klf15 (Kruppel-like factor 15),DRSC17742,3.61e6,4.06e6,4.11e6
"Arpc1 (Actin-related protein 2/3 complex, subunit 1)",DRSC03438,3.52e6,4.05e6,3.93e6
CG5177,DRSC02824,3.58e6,4.08e6,4.03e6
